Experimental data taken from article doi:10.1101/2024.06.27.600789.
Read-outs that look alike come from different tables or passages of the source. No constants are given. Whether binding was seen depends on the method and setting. In cells and extracts the contact can be indirect. A yes stands for co-enrichment or nearness to the bait. Other partners may have been found. Blank lines part the entries; values can stand above or below the molecule they belong to.

By UniProt entry, the sequences of proteins in these tests, tags left out. Where a name states a change or a piece, a line headed by the entry shows the natural chain unless it says otherwise. Chains listed by the source or under a name are the forms on record and can include a tag or linker. Residues count along the entry.
UniProt Q9UHB6: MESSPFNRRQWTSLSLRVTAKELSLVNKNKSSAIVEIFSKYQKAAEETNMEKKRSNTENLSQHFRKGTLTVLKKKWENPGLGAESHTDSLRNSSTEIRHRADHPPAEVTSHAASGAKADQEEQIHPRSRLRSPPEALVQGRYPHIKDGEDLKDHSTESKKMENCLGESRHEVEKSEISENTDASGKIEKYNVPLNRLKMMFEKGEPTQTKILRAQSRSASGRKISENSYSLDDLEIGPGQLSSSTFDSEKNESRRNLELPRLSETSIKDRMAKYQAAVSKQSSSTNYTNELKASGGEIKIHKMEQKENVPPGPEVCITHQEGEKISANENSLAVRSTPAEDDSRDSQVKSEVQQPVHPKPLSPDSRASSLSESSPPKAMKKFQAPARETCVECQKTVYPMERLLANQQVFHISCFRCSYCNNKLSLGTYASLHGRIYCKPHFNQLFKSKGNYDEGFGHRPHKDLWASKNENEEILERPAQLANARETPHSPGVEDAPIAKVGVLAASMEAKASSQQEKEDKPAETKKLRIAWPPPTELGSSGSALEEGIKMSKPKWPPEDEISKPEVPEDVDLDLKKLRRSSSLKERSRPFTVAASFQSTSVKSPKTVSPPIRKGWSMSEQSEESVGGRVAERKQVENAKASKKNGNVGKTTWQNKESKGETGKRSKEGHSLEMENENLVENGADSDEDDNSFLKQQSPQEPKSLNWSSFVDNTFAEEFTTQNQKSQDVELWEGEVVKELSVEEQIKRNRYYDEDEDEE
BirA*-tagged EPLINα (pPB-TagBFP-T2A-myc-BirA*-EPLINα): residues 161-759 of Q9UHB6
UniProt Q9ULV4: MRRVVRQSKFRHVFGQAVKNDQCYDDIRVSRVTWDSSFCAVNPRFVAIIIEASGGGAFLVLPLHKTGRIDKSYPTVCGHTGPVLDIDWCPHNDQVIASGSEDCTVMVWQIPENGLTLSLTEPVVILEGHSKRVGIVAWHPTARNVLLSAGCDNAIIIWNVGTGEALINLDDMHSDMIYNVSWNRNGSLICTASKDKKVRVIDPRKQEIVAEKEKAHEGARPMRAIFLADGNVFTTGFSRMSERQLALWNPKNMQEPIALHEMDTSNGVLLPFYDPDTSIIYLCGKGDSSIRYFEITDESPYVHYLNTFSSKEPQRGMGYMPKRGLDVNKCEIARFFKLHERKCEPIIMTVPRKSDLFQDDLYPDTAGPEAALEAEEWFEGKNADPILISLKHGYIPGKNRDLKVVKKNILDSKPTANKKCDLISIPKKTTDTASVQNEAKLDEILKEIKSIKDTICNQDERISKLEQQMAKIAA
UniProt Q70E73: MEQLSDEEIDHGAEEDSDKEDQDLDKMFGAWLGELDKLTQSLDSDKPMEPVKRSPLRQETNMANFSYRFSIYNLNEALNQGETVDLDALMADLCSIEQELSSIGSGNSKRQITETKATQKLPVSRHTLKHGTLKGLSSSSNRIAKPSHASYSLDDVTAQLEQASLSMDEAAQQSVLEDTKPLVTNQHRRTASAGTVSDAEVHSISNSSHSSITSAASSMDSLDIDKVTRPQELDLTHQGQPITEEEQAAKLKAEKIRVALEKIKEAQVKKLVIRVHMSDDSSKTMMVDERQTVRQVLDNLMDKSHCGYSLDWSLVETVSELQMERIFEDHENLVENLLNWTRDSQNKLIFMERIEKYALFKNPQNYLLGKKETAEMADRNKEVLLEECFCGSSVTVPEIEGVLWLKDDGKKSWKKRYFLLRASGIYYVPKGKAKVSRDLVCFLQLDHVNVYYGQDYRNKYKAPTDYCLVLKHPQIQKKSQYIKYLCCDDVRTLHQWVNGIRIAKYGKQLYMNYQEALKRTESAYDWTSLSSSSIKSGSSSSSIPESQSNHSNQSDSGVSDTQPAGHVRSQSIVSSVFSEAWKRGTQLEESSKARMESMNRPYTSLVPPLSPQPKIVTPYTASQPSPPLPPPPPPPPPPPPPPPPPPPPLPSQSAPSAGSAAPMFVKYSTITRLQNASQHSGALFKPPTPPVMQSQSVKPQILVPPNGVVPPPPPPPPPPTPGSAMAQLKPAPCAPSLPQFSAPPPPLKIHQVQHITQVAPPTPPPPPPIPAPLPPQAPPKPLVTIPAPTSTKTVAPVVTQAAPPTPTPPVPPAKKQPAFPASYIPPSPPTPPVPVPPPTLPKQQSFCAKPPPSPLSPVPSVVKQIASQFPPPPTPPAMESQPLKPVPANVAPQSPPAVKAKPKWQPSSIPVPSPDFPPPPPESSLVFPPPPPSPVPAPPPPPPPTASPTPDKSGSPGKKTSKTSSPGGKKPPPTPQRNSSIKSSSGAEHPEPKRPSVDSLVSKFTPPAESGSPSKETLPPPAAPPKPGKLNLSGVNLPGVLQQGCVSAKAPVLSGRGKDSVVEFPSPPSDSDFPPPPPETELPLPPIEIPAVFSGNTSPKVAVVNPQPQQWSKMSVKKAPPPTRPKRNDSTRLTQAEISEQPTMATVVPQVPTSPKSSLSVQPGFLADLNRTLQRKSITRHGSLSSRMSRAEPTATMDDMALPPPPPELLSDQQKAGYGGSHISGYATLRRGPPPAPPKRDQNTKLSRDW
UniProt Q14315: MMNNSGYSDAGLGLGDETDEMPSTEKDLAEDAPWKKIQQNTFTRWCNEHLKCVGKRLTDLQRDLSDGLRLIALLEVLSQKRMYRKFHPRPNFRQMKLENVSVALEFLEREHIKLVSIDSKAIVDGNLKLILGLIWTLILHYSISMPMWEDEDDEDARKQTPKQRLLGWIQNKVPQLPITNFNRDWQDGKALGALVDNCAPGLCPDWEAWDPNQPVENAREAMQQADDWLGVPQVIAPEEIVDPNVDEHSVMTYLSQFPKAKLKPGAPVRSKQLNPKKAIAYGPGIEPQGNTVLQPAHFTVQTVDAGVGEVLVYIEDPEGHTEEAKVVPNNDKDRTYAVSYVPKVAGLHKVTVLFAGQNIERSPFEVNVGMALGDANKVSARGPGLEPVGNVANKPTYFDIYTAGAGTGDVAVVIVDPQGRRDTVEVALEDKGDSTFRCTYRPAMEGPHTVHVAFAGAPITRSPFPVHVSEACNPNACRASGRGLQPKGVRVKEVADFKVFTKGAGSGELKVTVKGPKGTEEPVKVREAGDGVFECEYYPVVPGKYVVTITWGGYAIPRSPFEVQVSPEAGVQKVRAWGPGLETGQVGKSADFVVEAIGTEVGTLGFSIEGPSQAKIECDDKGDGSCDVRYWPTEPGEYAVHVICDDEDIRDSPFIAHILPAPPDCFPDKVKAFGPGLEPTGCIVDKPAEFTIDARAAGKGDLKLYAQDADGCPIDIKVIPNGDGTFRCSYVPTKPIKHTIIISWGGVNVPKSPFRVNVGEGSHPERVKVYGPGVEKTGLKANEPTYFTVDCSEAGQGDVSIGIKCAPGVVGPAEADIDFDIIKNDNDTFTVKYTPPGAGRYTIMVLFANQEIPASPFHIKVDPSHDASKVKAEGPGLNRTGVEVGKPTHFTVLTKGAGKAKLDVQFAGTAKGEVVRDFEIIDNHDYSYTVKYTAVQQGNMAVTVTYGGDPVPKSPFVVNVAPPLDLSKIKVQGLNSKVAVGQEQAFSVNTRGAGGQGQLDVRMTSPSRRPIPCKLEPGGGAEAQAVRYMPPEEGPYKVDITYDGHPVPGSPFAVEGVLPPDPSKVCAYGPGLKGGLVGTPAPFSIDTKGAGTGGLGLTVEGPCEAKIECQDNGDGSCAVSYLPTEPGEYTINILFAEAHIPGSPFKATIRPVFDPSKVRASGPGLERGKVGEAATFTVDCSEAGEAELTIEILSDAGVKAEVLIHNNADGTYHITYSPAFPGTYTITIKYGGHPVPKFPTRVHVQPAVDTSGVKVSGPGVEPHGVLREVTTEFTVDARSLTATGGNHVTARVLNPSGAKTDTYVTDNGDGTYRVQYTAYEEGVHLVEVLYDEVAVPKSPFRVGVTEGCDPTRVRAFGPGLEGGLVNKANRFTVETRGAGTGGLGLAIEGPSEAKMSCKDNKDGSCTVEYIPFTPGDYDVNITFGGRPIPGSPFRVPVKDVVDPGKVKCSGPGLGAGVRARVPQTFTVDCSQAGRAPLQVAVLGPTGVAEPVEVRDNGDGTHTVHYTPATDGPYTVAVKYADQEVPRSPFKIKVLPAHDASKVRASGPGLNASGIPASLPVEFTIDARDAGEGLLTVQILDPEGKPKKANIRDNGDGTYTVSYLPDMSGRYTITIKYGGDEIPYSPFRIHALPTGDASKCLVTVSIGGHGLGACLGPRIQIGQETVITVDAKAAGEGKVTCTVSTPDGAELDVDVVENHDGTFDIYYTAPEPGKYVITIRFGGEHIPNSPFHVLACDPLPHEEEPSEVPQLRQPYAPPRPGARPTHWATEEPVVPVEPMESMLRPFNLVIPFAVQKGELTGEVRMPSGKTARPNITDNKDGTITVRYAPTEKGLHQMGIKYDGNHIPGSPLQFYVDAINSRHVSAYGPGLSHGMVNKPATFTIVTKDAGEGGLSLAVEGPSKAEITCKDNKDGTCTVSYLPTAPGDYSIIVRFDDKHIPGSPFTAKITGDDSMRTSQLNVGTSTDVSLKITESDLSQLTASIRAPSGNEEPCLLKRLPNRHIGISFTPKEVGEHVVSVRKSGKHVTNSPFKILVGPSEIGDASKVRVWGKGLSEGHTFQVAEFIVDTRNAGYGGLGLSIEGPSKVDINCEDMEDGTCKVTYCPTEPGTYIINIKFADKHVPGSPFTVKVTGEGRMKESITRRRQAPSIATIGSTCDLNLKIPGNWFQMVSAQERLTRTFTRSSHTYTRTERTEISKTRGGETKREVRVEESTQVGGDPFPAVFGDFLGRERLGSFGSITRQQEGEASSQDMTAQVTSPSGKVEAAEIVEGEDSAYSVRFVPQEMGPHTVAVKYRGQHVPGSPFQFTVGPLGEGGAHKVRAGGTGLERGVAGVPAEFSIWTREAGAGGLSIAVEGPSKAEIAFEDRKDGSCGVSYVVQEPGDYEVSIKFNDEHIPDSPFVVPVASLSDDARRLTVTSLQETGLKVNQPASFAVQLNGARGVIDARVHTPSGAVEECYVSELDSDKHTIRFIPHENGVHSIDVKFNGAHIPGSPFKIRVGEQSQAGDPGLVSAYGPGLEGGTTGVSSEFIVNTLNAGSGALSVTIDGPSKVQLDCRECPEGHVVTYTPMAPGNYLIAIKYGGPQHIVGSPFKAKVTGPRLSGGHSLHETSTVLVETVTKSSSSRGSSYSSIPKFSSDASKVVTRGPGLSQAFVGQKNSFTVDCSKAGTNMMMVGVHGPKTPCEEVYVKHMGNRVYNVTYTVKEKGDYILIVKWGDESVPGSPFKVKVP

Key:
Experiment in all cases: proximity labelling
[1] = biological target: BirA*-tagged EPLINβ (pPB-TagBFP-T2A-myc-BirA*-EPLINβ) (human) (UniProt Q9UHB6)
[2] = biological target: BirA*-tagged EPLINα (pPB-TagBFP-T2A-myc-BirA*-EPLINα) (human) (UniProt Q9UHB6)
[3] = biological target: BirA*-tagged EPLINβ (pPB-TagBFP-T2A-myc-BirA*-EPLINβ) (human) (UniProt Q9UHB6); remark: listed apart in the source
[4] = biological target: BirA*-tagged EPLINα (pPB-TagBFP-T2A-myc-BirA*-EPLINα) (human) (UniProt Q9UHB6); remark: listed apart in the source

binding [1]: binds
Molecule: filamin B (from UniProt O75369 1-2602)

binding [2]: binds
binding [1]: binds
Molecule: coronin 1C (CORO1C) (from UniProt Q9ULV4 1-474)

binding [1]: binds
Molecule: SHROOM3 (from UniProt Q8TF72 1-1996)

binding [2]: binds
Molecule: lamellipodin (RAPH1) (from UniProt Q70E73 1-1250)

binding [1]: binds
Molecule: filamin C (from UniProt Q14315 1-2725)

binding [2]: binds
Molecule: phosphatase SYNJ1 (from UniProt O43426 1-1573)

binding [3]: binds
B1: calponin CNN2 (protein, UniProt Q99439 1-309)
chain: MSSTQFNKGPSYGLSAEVKNRLLSKYDPQKEAELRTWIEGLTGLSIGPDFQKGLKDGTILCTLMNKLQPGSVPKINRSMQNWHQLENLSNFIKAMVSYGMNPVDLFEANDLFESGNMTQVQVSLLALAGKAKTKGLQSGVDIGVKYSEKQERNFDDATMKAGQCVIGLQMGTNKCASQSGMTAYGTRRHLYDPKNHILPPMDHSTISLQMGTNKCASQVGMTAPGTRRHIYDTKLGTDKCDNSSMSLQMGYTQGANQSGQVFGLGRQIYDPKYCPQGTVADGAPSGTGDCPDPGEVPEYPPYYQEEAGY

binding [4]: binds
B2: LASP1 (protein, UniProt Q14847 1-261)
chain: MNPNCARCGKIVYPTEKVNCLDKFWHKACFHCETCKMTLNMKNYKGYEKKPYCNAHYPKQSFTMVADTPENLRLKQQSELQSQVRYKEEFEKNKGKGFSVVADTPELQRIKKTQDQISNIKYHEEFEKSRMGPSGGEGMEPERRDSQDGSSYRRPLEQQQPHHIPTSAPVYQQPQQQPVAQSYGGYKEPAAPVSIQRSAPGGGGKRYRAVYDYSAADEDEVSFQDGDTIVNVQQIDDGWMYGTVERTGDTGMLPANYVEAI
